Source: PubChem BioAssay AID2685 (National Center for Advancing Translational Sciences (NCATS), 2010)
In all, about 320,000 compounds went through this assay and about 2,100 (0.66%) were called active. The shares of active, inactive and inconclusive entries below differ from those in the screen. Calls follow the shape of the dose curve; as a rule, active = well fitted inhibition curve with a large enough effect in the signal ratio, with a control signal flat (not every such curve was filed as active); inconclusive = small, poorly fitted or top-dose-only effect, or effect the other way, or a change in a side signal; inactive = flat fitted curve, though single readings scatter; the % refers to the signal ratio. Potencies beside an inconclusive call are fits to weak or partial responses and may not hold up.

Assay: qHTS Assay for Lipid Storage Modulators in Drosophila S3 Cells
Details: BODIPY lipid droplet fluorescence, 18-24 h, cells fed with added oleic acid; lipid storage change, negative = inhibition: at 46.1 µM (top of the series) unless noted
In short: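 Laser-scanning cytometry quantifies lipid droplet accumulation (500–530 nm total intensity; droplet/cell object ratio) in oleic acid-fed (400 uM added) Drosophila S3 cells treated with a concentration series. 20 uM Triacsin C defined 100% inhibition.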
% is scaled to controls: 0 for no effect and ±100 for the full control effect; potency is read from the fitted curve at half-maximal effect.

Row | SMILES | lipid storage change, negative = inhibition | Potency
1 | Cc1ccc(S(=O)(=O)NNC(=O)C2CCN(S(=O)(=O)c3ccc(C)cc3)CC2)cc1 | inactive | 
2 | COc1ccc(-c2nnc3sc(CN4C(=O)c5ccccc5C4=O)nn23)cc1 | inconclusive: 49.8% | 
3 | Cc1ccc(Cl)cc1NC(=O)CCC(=O)Nc1cc(Cl)ccc1C | inconclusive: -0.175% | 
4 | O=C(OCN1C(=O)c2ccccc2C1=O)c1cccnc1SC(F)F | inconclusive: -19.1% | 
5 | Cc1nn(C)c(C(=O)N/N=C/c2ccc(-c3ccccc3)cc2)c1Cl |  | inconclusive: 1.3 µM [activator, partial curve]
6 | CN(C(=O)CSc1nnc(NCc2ccccc2)s1)C1CCS(=O)(=O)C1 (centres undefined) | inconclusive: -9.6% | 
7 | O=C(COC(=O)Cc1ccccc1F)NNC(=O)c1ccc([N+](=O)[O-])cc1 | inconclusive | 
8 | O=C(N/N=C/c1ccc([N+](=O)[O-])cc1)c1cccc(N2CCCC2=O)c1 |  | inconclusive: 29.1 µM [falling, single point]
9 | Cc1cc(OCC(=O)NCc2ccccn2)c2c(C)cc(=O)oc2c1 |  | inconclusive: 16.4 µM [falling, partial curve]
10 | Cc1ccc(OCC(=O)N(C)CCc2ccccn2)cc1 | inconclusive: 15.7% | 
11 | Fc1ccccc1CSc1ncnc2sc3c(c12)CCCC3 |  | inconclusive: 5.8 µM [rising, partial curve, poor fit]
12 | O=C(CSc1nc2ccccc2c(=O)n1-c1ccccc1)N1CCN(CCO)CC1 | inconclusive: 1.15% | 
13 | O=C1C(Cc2ccc(F)cc2)SC(=Nc2ccccc2)N1c1ccccc1 (centres undefined) | inconclusive: 6.61% | 
14 | CCn1c(SCC(=O)Nc2nonc2C)nnc1-c1ccoc1C |  | inconclusive: 3.26 µM [falling, single point]
15 | Cc1nc(N2CCN(c3ccccn3)CC2)c2c(C)c(C(=O)N3CCN(c4cccc(Cl)c4)CC3)sc2n1 |  | inconclusive: 29.1 µM [rising, single point]
16 | COc1ccc(-c2cc(C)no2)cc1S(=O)(=O)N1CCCCC1 | inconclusive: -88.7% | 
17 | O=c1c2ccccc2nc(CSc2nnnn2-c2ccccc2)n1-c1ccccc1 | inconclusive: 88.2% | 
18 | COC(=O)c1ccc(C(=O)N2CCCC(Nc3ccc(C(C)C)cc3)C2)nc1 (centres undefined) |  | inconclusive: 16.4 µM [falling, single point]
19 | O=C(CN1CCOCC1)N(c1ccccc1)c1ccc2ccccc2c1 | inconclusive: 16.4% | 
20 | CC(=O)COc1nc2c(c(-c3ccco3)c1C#N)CCc1ccccc1-2 | inactive | 
21 | CC1NC(=S)N(Cc2ccccc2)C1=O (centres undefined) |  | inconclusive: 29.1 µM [falling, single point]
22 | O=C1OCCC1Sc1nnc(-c2ccccc2Br)n1Cc1ccccc1 (centres undefined) | inconclusive: -11.8% | 
23 | CCC1Oc2ccc(C)cc2N(CC(=O)NCCCN2CCOCC2)C1=O (centres undefined) | inconclusive: 18.2% | 
24 | CCC(=O)Nc1c(S(=O)(=O)c2ccccc2)c2nc3ccccc3nc2n1Cc1ccccc1 | inconclusive: -29.2% | 
25 | CC(C)c1ccc(-c2cc(C(=O)N3N=C(C(F)F)CC3(O)C(F)F)c3ccccc3n2)cc1 (centres undefined) | inconclusive: -100% | 
26 | O=C(C1CCC1)N1CCN(S(=O)(=O)c2ccccc2)CC1 | inconclusive | 
27 | O=C(C(=O)N1CCN(c2ccccc2Cl)CC1)c1c[nH]c2ccccc12 | inconclusive: 40.4% | 

Some of these compounds in order of heavy-atom count, falling:
Row | SMILES | lipid storage change, negative = inhibition | Potency
25 | CC(C)c1ccc(-c2cc(C(=O)N3N=C(C(F)F)CC3(O)C(F)F)c3ccccc3n2)cc1 (centres undefined) | inconclusive: -100% | 
12 | O=C(CSc1nc2ccccc2c(=O)n1-c1ccccc1)N1CCN(CCO)CC1 | inconclusive: 1.15% | 
23 | CCC1Oc2ccc(C)cc2N(CC(=O)NCCCN2CCOCC2)C1=O (centres undefined) | inconclusive: 18.2% | 

(cont.)

Row | SMILES | lipid storage change, negative = inhibition | Potency
28 | COc1cc(/C=C(\C#N)C(=O)NCC2CCCO2)ccc1OCC(=O)O (centres undefined) | inconclusive: -22.7% | 
29 | C#CCN1C(=O)C(O)(CC(=O)/C=C/C=C/c2ccccc2)c2ccccc21 (centres undefined) | inconclusive: 22.6% | 
30 | COc1ccc(C(=O)COc2ccc3ccc(=O)oc3c2)cc1 | inconclusive: 8.12% | 
31 | Cc1c(Cc2ccccc2)c(=O)oc2cc(OCC(=O)N3CCC(C(=O)O)CC3)ccc12 | inconclusive: 20.1% | 
32 | CCN=C1SC(CC(=O)NC(C)c2ccccc2)C(=O)N1CC (centres undefined) | inactive | 
33 | Cc1csc(N(C)C(=O)CSc2nnc(COc3ccccc3C)o2)n1 | inconclusive: 311% | 
34 | COc1ccc(NC(=O)c2cc(-c3ccco3)nc3ccccc23)cn1 |  | inconclusive: 5.17 µM [falling, partial curve]
35 | COCCNC(=O)CN1CCN(Cc2cccc(Cl)c2)C1=O | inconclusive: -10.1% | 
36 | O=C(COC(=O)CCC(=O)c1cccs1)NC1CC1 | inconclusive: 48.9% | 
37 | CC1=C(C#N)C(NC(=O)C2CCCCC2)(C(F)(F)F)C(=O)N1 (centres undefined) | inactive | 
38 | O=C(c1ccc(=O)oc1)N1CCN(C(c2ccccc2)c2ccccc2)CC1 | inconclusive: -9.19% | 
39 | Cc1ccc(/C=C/C(=O)N2CCCC(C)C2)cc1 (centres undefined) |  | inconclusive: 25.9 µM [activator, single point]
40 | CC1CCCN(C(=O)CN(C)S(=O)(=O)c2cccc3nsnc23)C1 (centres undefined) |  | inconclusive: 6.51 µM [falling, single point]
41 | Cc1ccc(NC(=O)COC(=O)C(NS(=O)(=O)c2ccc(Cl)cc2)C(C)O)c(Br)c1 (centres undefined) |  | inconclusive: 14.6 µM [activator, partial curve]
42 | CC(=O)N1Cc2ccccc2C(C)CC12CCCCC2 (centres undefined) |  | inconclusive: 29.1 µM [falling, single point]
43 | CS(=O)(=O)c1ccc(C(=O)N(CCc2ccccc2)Cc2ccccc2)cc1 | inconclusive: 29.5% | 
44 | C/C(=N\NC(=S)NCc1ccccc1)c1ccc(C)o1 | inconclusive: -70.5% | 
45 | O=C1CC(c2ccccc2)CC(O)=C1C=NCCN1CCNCC1 (centres undefined) |  | inconclusive: 0.092 µM [falling, full curve, poor fit]
46 | OCc1nc2ccccc2n1Cc1c(F)cccc1Cl | inconclusive: -8.45% | 
47 | Cc1cc2c(cc1S(=O)(=O)Nc1cccc(F)c1)n(C)c(=O)c(=O)n2C | inconclusive: -59.7% | 
48 | O=C(CCn1c(=S)[nH]c2ccccc2c1=O)NCCCN1CCOCC1 | inconclusive: 32.2% | 
49 | O=C(Nc1nc(-c2ccc(Cl)cc2)cs1)NC1CCCCC1 | inconclusive: -26.4% | 
50 | CC(=O)NCCn1c(SCC(=O)c2ccccc2)nc2ccccc2c1=O |  | inconclusive: 1.46 µM [activator, full curve]
51 | Cc1ccc(OCC(=O)NNC(=O)c2cc3ccccc3o2)cc1 | inconclusive: 40.1% | 
52 | CC(=O)c1c(C)[nH]c(C(=O)CN2C(=O)NC(C)(c3ccc4c(c3)OCCO4)C2=O)c1C (centres undefined) | inconclusive: 20.7% | 
53 | O=C1COc2ccc(C(=O)COC(=O)c3ccccn3)cc2N1 | inconclusive: -2.72% | 
54 | COCCn1c(SCC(=O)NCc2ccccc2)nc2ccccc21 |  | inconclusive: 0.103 µM [activator, single point]

Taken from above, 3 compounds:
Row | SMILES | lipid storage change, negative = inhibition | Potency
48 | O=C(CCn1c(=S)[nH]c2ccccc2c1=O)NCCCN1CCOCC1 | inconclusive: 32.2% | 
49 | O=C(Nc1nc(-c2ccc(Cl)cc2)cs1)NC1CCCCC1 | inconclusive: -26.4% | 
50 | CC(=O)NCCn1c(SCC(=O)c2ccccc2)nc2ccccc2c1=O |  | inconclusive: 1.46 µM [activator, full curve]

Carrying on.

Row | SMILES | lipid storage change, negative = inhibition | Potency
55 | CC/C(=N\NC(=O)CCC(=O)NCc1ccccc1)c1ccc(O)cc1 | inconclusive: -1.48% | 
56 | O=C(CCN1CCOCC1)N1CCCC(Nc2cccc(F)c2)C1 (centres undefined) | inconclusive: -27.8% | 
57 | Cc1cc(C)c(N)cc1C | inconclusive: 7.27% | 
58 | CCC(C)C(=O)Nc1ccc(OC)cc1[N+](=O)[O-] (centres undefined) | inconclusive: 25.4% | 
59 | COc1ccc(C[C@H]2CN3C(=NC[C@H]3Cc3ccccc3)N2CCNC(=O)CCC2CCCCC2)cc1 | inconclusive: -28.9% | 
60 | COc1ccc(OC)c(C2CC(=O)OC3=C2C(=O)CC(C)(C)C3)c1 (centres undefined) | inconclusive: 4.03% | 
61 | Cc1cc(C)c(OCC(=O)OC(C)C(=O)N2CCc3ccccc32)c(C)c1 (centres undefined) |  | inconclusive: 0.0052 µM [activator, full curve, poor fit]
62 | O=C(O)CSCc1nc2ccccc2[nH]1 | inactive | 
63 | COc1cccc(N2CCCn3c2nc2c3c(=O)n(CCN3CCOCC3)c(=O)n2C)c1 | inconclusive: 64.3% | 
64 | CC(OC(=O)C1CSC2(C)CCC(=O)N12)C(=O)Nc1ccc(F)cc1 (centres undefined) |  | inconclusive: 1.3 µM [falling, full curve]
65 | O=C(C[n+]1ccncc1)c1ccccc1 | inconclusive: -17.5% | 
66 | CC(C)(C)c1ccc(S(=O)(=O)N2CCN(CCC#N)CC2)cc1 | inconclusive: -3.7% | 
67 | CCOC(=O)c1c(C)nc2sc3c(=O)n(-c4ccc(C(C)=O)cc4)cnc3c2c1-c1ccc(OC)cc1 | inconclusive: -14.3% | 
68 | Cc1nnc2c(N3CCN(CCO)CC3)nc3ccccc3n12 | inconclusive: -14.4% | 
69 | O=C(Nc1ccccc1)c1ccc(NCC2CCCO2)c([N+](=O)[O-])c1 (centres undefined) |  | inconclusive: 23.1 µM [falling, partial curve]
70 | O=C(O)C1=C[C@H](c2ccc(F)cc2)C[C@H](OCCCCO)O1 | inconclusive: 19.5% | 
71 | COc1ccc(N2CCN(S(=O)(=O)c3c(C)[nH]c(C)c3C(=O)N3CCCC3)CC2)cc1 | inconclusive: -90.3% | 
72 | Cc1noc(C)c1COc1ccc(C(=O)NCC2CCCO2)cc1 (centres undefined) | inactive | 
73 | C=CCN(c1ccccc1)S(=O)(=O)c1cccc(C(=O)NNC(=O)c2ccncc2)c1 | inconclusive | 
74 | COc1ccc(O)c(/C=N/NC(=O)c2cc(=O)[nH]c3ccccc23)c1 | inconclusive: -9.47% | 
75 | Cc1cccc(C(=O)Nc2cccnc2Cl)c1 | inconclusive: -7.85% | 
76 | Cc1ccc(C)c(-n2c(Cc3cc(=O)[nH]c(=O)[nH]3)nnc2SC(C)C)c1 | inconclusive: 63.9% [activator] | 
77 | CCN(CC)C(=O)Cn1cc(C(=O)C(=O)N2CCN(Cc3ccccc3)CC2)c2ccccc21 |  | inconclusive: 6.51 µM [activator, single point]
78 | CCC(=O)C1CCCN(C(=O)c2ccc(OC3CCN(C(=O)c4cccnc4)CC3)cc2)C1 (centres undefined) | inconclusive: -42% | 
79 | O=C(N/N=C\c1ccc(Cl)cc1)C1=NOC2COC3(CCN(c4ccc([N+](=O)[O-])cc4)CC3)OCC12 (centres undefined) |  | inconclusive: 0.116 µM [falling, full curve, poor fit]
